Data taken from ChEMBL document CHEMBL3988442, “University of Dundee, Small-Polar-MMV Screening Library” (2021).

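Whole-cell growth test on Mycobacterium tuberculosis, read after 3 days in glucose-containing 7H9 medium; the read-out is not stated. Tested at 500 µM. Direction is inferred from retests: higher values go with more growth inhibition. Size under these conditions: about 18,000 compounds, about 1,400 of them at 50% or above in at least one test.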

Results are given as percent effect.
How 0% and 100% were set is not recorded. Most values in the screen are low, and negative values occur.
Compounds were drawn at random from those tested, without regard to their results.

Compound,effect
CSCCC(O)C(=O)N(C)Cc1cnccn1 (stereo not given),-4.736
COc1c(CNCCS(C)(=O)=O)c(C(C)C)nn1C,11.16
CCc1cnc(CNC)s1,4.163
Oc1ccc2ccccc2c1CNn1cnnc1,-4.763
NCCc1nc(-c2ccc(F)cc2)c[nH]1,-9.672
Cc1cncn1CCCN,-23.59
Cc1ccc(C2CCCN2S(=O)(=O)N2CCOCC2)o1 (stereo not given),-15.67
COC(=O)CCC(=O)Nc1ccccc1F,2.085
CS(=O)(=O)N(CC(F)(F)F)c1ccncc1,-0.4718
O=S(=O)(c1ccc(O)cc1)N1CCCCC1,26.56
CN1CCC(N(C)C(=O)c2ccc3c(c2)CCO3)CC1,10.92
CCC(NC(=O)c1cccs1)c1nc(C)c[nH]1 (stereo not given),-15.22
Cc1nonc1OCCNC(=O)C1CCCCCN1C (stereo not given),9.307
CN(C)CCNC(=O)Cn1cc(NCC(C)(C)C)cn1,6.728
CC(C)(C)Sc1cc(CNC(=O)C2CCCN2)ccn1 (stereo not given),6.774
COc1cccc(CNCCCN2CCCC2=O)c1,-3.831
COc1cc(C)c(S(=O)(=O)N2C[C@@H](O)[C@@H](O)C2)cc1C,53.36
NCCNc1nccc(C(F)(F)F)n1,10.72
CCOc1cc(C(=O)NCc2ncc[nH]2)cc(Cl)c1O,26.39
CCOC(=O)CN(C)C(=O)c1ccc(=O)n(C)n1,-6.889
CC(=O)Nc1nc(CS(=O)(=O)Cc2cc(C)on2)cs1,9.353
O=C(CSCc1ccco1)Nc1ccncc1,0.1728
Cc1cccc(OCCC(=O)NCCS(C)(=O)=O)c1C,17.81
Cc1nc(CNC(CCO)C(C)C)no1 (stereo not given),2.045
CC(C)(C)C(=O)CCN1CCCCC1,100.1
Cc1noc(-c2ccc(CN)cc2)n1,39.56
COC(=O)c1ccc(C(O)C(F)F)cc1 (stereo not given),35.93
OCc1csc2nccn12,7.888
CC(C)C(N)C(=O)N(C)C (stereo not given),-6.71
COc1cc2c(cc1OC)CN(C(=O)C(C)C)CC2,37.07
CCC1CCN(C(=O)C2(CN)CCCC2)C1 (stereo not given),8.667
CCN(C)CCNS(=O)(=O)c1ccc(C(C)=O)cc1,41.85
CC(C)(C)OC(=O)N1CC(N)CC(F)(F)C1 (stereo not given),-6.027
Cc1ccc(OC(C)C(=O)NCCCC(N)=O)cc1 (stereo not given),-0.4259
N#Cc1ccc(S(=O)(=O)NCCN)cc1C(F)(F)F,77.68
Cc1ccccc1C1(O)CCN(Cc2cccnc2)C1 (stereo not given),3.471
c1ccc(-c2n[nH]c(C3CCCNC3)n2)cc1 (stereo not given),14.97
COC(=O)c1ccc(NC2CCN(C)CC2)o1,-40.44
CC(C)c1cccc(S(=O)(=O)N(C)Cc2nnc[nH]2)c1,51.11
CC(C)(C)N1CCCN(C(=O)c2cc(Cl)c[nH]2)CC1,13.21
O=C(NCCN1CCNCC1)C1CCC1,-5.502
CSC(C)C(=O)N1CCOC(C)(C)C1 (stereo not given),-4.561
CC(N)(CO)C1CCCCC1 (stereo not given),-8.505
CCCC(=O)NC1CCN(C(C)C)CC1,9.68
Cn1cc(NC(=O)CC2C=CCC2)cc(Br)c1=O (stereo not given),-11.83
CNC(=O)NC(=O)CSc1ccccn1,6.619
Cc1noc(-c2ccc(C(N)=O)cc2)n1,-3.39
Cn1cc(C(=O)NC2CCN(CCC(N)=O)CC2)cn1,4.888
N#Cc1cccnc1N1CCOC(c2nccs2)C1 (stereo not given),66.81
CCOC(=O)CC1(N)CCOCC1,11.68
CC(=O)NCCCNS(=O)(=O)c1cccc(Cl)c1F,10.45
CC(C)(CNC(=O)CCS(C)(=O)=O)Cc1ccccc1,48.93

5 of the entries, repeated:

Compound,effect
CC(C)C(N)C(=O)N(C)C (stereo not given),-6.71
Cc1nonc1OCCNC(=O)C1CCCCCN1C (stereo not given),9.307
CN(C)CCNC(=O)Cn1cc(NCC(C)(C)C)cn1,6.728
CCOc1cc(C(=O)NCc2ncc[nH]2)cc(Cl)c1O,26.39
N#Cc1cccnc1N1CCOC(c2nccs2)C1 (stereo not given),66.81